Results deposited as PubChem BioAssay AID743121 (NCATS, 2013)

Purpose: 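Knock-downs that sensitise breast cancer cells to camptothecin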 (primary screen)
Cells: MDA-MB-231 cells, a human breast cancer line
Reagent: single siRNA against human genes, 20 nM siRNA (0.8 pmol per well)
Timing: 120 h (drug added 48 h after transfection, read 72 h later)
Conditions: camptothecin 20 nM (about EC30) for 72 h; vehicle 0.1% DMSO in parallel plates
Detection: 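CellTiter-Glo ATP signal, scaled to control siRNA as percent viability; sensitisation given as log2 of untreated divided by camptothecin-treated viability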
Direction: log2 vehicle/camptothecin viability: higher = stronger sensitisation to camptothecin; viability with camptothecin: higher = more viable cells
Call rule: 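Each gene scored by redundant siRNA activity (RSA) over its individual siRNA ratios; a gene is called active at p < 0.001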
This is an unselected part of about 26,000 deposited reagents. Of all reagents, 167 (0.63%) were called active. 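Calls are per gene from RSA p-values that are not deposited; an individual active-marked siRNA can sensitise only weakly.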 Reagents against one gene are numbered here. Further read-outs or replicates are left out here. Reagent sequences are not shown.

The opening 5 records, ahead of the listing:
target | siRNA no. | log2 vehicle/camptothecin viability | viability with camptothecin (% of control) | Outcome
ATP5F1B | 1 | -0.234 | 55.1 | inactive
ATP5F1B | 2 | -0.147 | 64.9 | inactive
ATP5F1B | 3 | -0.152 | 104 | inactive
ATP5F1B | 4 | -0.258 | 97.5 | inactive
OMP | 1 | 1.18 | 34.6 | inactive

The list itself, repeating the preview:
target | siRNA no. | log2 vehicle/camptothecin viability | viability with camptothecin (% of control) | Outcome
ATP5F1B | 1 | -0.234 | 55.1 | inactive
ATP5F1B | 2 | -0.147 | 64.9 | inactive
ATP5F1B | 3 | -0.152 | 104 | inactive
ATP5F1B | 4 | -0.258 | 97.5 | inactive
OMP | 1 | 1.18 | 34.6 | inactive
OMP | 2 | -0.169 | 4.51 | inactive
OMP | 3 | -0.29 | 71 | inactive
OMP | 4 | -0.0253 | 78.9 | inactive
PCDH10 | 1 | -0.416 | 47.2 | inactive
PCDH10 | 2 | -0.535 | 75.7 | inactive
PCDH10 | 3 | -0.139 | 90.7 | inactive
P4HA3 | 1 | 0.022 | 95.8 | inactive
P4HA3 | 2 | 0.972 | 18.9 | inactive
P4HA3 | 3 | -0.0165 | 90.4 | inactive
RNPEPL1 | 1 | -0.17 | 94.1 | inactive
RNPEPL1 | 2 | -0.182 | 80.5 | inactive
RNPEPL1 | 3 | -0.533 | 79 | inactive
RNPEPL1 | 4 | -0.0513 | 62.9 | inactive
STX17 | 1 | 0.175 | 80.5 | inactive
STX17 | 2 | -0.287 | 59.8 | inactive
STX17 | 3 | -0.442 | 62.6 | inactive
STX17 | 4 | -0.124 | 68.8 | inactive
LGMN | 1 | 0.137 | 69.2 | inactive
LGMN | 2 | 0.0301 | 53.3 | inactive
LGMN | 3 | -0.264 | 58.6 | inactive
LGMN | 4 | -0.18 | 105 | inactive
IARS1 | 1 | -0.171 | 98.1 | inactive
IARS1 | 2 | -0.331 | 76.9 | inactive
IARS1 | 3 | -0.277 | 98.5 | inactive
USP32P2 | 1 | -0.381 | 65.9 | inactive
USP32P2 | 2 | -0.0844 | 92.8 | inactive
USP32P2 | 3 | 0.0889 | 77.4 | inactive
USP32P2 | 4 | -0.679 | 95.4 | inactive
HAVCR1 | 1 | -0.0137 | 77.2 | inactive
HAVCR1 | 2 | 0.212 | 53.7 | inactive
HAVCR1 | 3 | -0.6 | 72 | inactive
HAVCR1 | 4 | 0.898 | 54.8 | inactive
ALDH18A1 | 1 | -0.423 | 96.6 | inactive
ALDH18A1 | 2 | -0.227 | 75.2 | inactive
ALDH18A1 | 3 | 0.216 | 88.1 | inactive
ALDH18A1 | 4 | -0.145 | 114 | inactive
PCDHB5 | 1 | -0.149 | 83.5 | inactive
PCDHB5 | 2 | -0.207 | 40.9 | inactive
PCDHB5 | 3 | -0.0413 | 98.7 | inactive
PCDHB5 | 4 | -0.101 | 106 | inactive
NHERF1 | 1 | -0.279 | 65.9 | inactive
NHERF1 | 2 | -0.156 | 88.6 | inactive
NHERF1 | 3 | -0.516 | 118 | inactive
NHERF1 | 4 | -0.275 | 44.2 | inactive
